Measured values published in patent publication US7074566.
These are yes or no findings as the source states them, for the method shown. Some entries that bind do so weakly or less than the wild type.

By UniProt entry, the sequences of proteins in these tests, tags left out. Residues count along the entry.
UniProt P10275, residues 325-919: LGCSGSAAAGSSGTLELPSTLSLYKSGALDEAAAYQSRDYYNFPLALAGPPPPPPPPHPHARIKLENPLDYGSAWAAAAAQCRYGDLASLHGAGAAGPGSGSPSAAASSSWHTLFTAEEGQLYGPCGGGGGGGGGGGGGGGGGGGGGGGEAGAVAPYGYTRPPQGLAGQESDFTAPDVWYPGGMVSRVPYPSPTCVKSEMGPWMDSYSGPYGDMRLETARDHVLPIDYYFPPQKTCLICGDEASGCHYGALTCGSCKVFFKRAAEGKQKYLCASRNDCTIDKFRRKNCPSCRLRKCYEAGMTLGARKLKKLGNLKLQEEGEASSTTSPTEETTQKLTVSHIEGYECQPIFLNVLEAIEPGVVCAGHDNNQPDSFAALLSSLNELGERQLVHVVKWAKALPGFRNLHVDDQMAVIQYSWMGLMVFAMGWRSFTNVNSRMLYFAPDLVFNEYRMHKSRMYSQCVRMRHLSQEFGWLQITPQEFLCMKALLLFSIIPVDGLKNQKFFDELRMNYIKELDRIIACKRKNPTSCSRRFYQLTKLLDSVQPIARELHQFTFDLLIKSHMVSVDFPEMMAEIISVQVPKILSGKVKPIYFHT

Key:
[1] = target: human AR fragment, amino acids 325 to 919 (human) (UniProt P10275); test: yeast two hybrid (figure legend, schematic of the AR)
[2] = target: human AR fragment, amino acids 325 to 919 (human) (UniProt P10275); test: yeast two hybrid screen with AR 325-919 as probe, 10^-6 M DHT, β-galactosidase assay

B1: HSRNAAM fragment, amino acids 271 to 433 (yeast two hybrid library clone, insert 986 bp to 2096 bp) (enzyme, UniProt P55345 271-433, looked up)
chain: FNLSALKSLAVKEFFSKPKYNHILKPEDCLSEPCTILQLDMRTVQISDLETLRGELRFDIRKAGTLHGFTAWFSVHFQSLQEGQPPQVLSTGPFHPTTHWKQTLFMMDDPVPVHTGDVVTGSVVLQRNPVWRRHMSVALSWAVTSRQDPTSQKVGEKVFPIWR
How did the binding [1] turn out when B1 was run?
The binding was “binds”.

And the binding [2]?
The binding was “binds”.
